Laboratory results published in patent publication US20260258420A1, “COMPOSITIONS AND METHODS FOR THE TREATMENT OF HUMAN PAPILLOMAVIRUS-DRIVEN CANCERS” (priority 2023, published 2026).
At least one compound was matched to its structure with a doubt left.

Experiments:
Assay type in all cases: cell-based
[1] = test system: 16 HPV-positive and 17 HPV-negative HNSCC and cervical squamous cancer cell lines; experiment: High-throughput drug screen (HTDS), whole panel, comparison by HPV status; conditions: for efficacy in HPV-positive vs HPV-negative cell lines: AOC_LD as a dichotomous variable
Description: The concordance correlation coefficient was computed to assess the reproducibility of the normalized growth rates of the 2 replicates. […] A chi-square test was applied to compare drug classification and the cluster membership. The Fisher exact test was applied to compare mutations status (wild-type and mutant) and drugs' response data (sensitive and resistant).
The effects of 864 unique drugs from 51 classes was tested in 16 HPV-positive and 17 HPV-negative HNSCC and cervical squamous cancer cell lines (Table 2) that were characterized previously (Kaiu, et al., Oncotarget 2017; 8(49):86369-83).

[2] = test system: HPV-positive cancer cell lines (UMSCC47, CaSki, and MS751); experiment: BrdU-TUNEL apoptosis assay, HPV-positive cell lines; conditions: 50 nmol/L barasertib or 200 nmol/L alisertib, 72 hours or 2 doubling times
Description: (§1) BrdU positive apoptotic cells were detected and quantified. The bar graph indicates the percentage of apoptotic cells with fragmented DNA in HPV-positive and HPV-negative cell lines. Values are the means±the standard deviations for 3 independent experiments. FIG. 2B and FIG. 2C show immunoblots of cleaved PARP (Cl. PARP) and cleaved caspase-3 (Cl. Caspase-3) levels in 3-HPV positive and 3 HPV-negative cell lines after barasertib or alisertib treatment for 2 doubling times (FIG. 2B) or 72 hours (FIG. 2C). […] UM47, UMSCC47; GAPDH, glyceraldehyde 3-phosphate dehydrogenase.
(§2) To measure apoptosis, TUNEL staining was performed with an APO-BRDU Kit (BD Biosciences, San Jose, CA) and annexin V/propidium iodide staining with an FITC Annexin V Apoptosis Detection Kit PE (eBioscience, San Diego, CA) as described previously (Kalu, et al., Cancer Lett 2018; 431:64-72). […] Data were acquired with a 3-laser, 10-color Gallios flow cytometer (Beckman Coulter, Brea, CA) and analyzed using Kaluza software, RRID:SCR_016182 (Beckman Coulter, Brea, CA). […] Briefly, after drug treatment, cells were incubated with Senescence Green Probe, a fluorescence-based reagent that contains 2 galactoside moieties that make it specific to […]. The enzyme-cleaved product is retained within the cell, and it emits a fluorogenic signal that was measured at 490/514 nm using a flow cytometer. […]

[3] = test system: HPV-negative cancer cell lines (UMSCC19, FaDu, and HN31); experiment: BrdU-TUNEL apoptosis assay, HPV-negative cell lines; conditions: 50 nmol/L barasertib or 200 nmol/L alisertib, 72 hours or 2 doubling times
Description: as §1, §2

[4] = test system: 3 HPV-positive and 3 HPV-negative cell lines; experiment: Immunoblot of cleaved PARP and cleaved caspase-3; conditions: 72 hours or 2 doubling times
Description: BrdU positive apoptotic cells were detected and quantified. The bar graph indicates the percentage of apoptotic cells with fragmented DNA in HPV-positive and HPV-negative cell lines. Values are the means±the standard deviations for 3 independent experiments. FIG. 2B and FIG. 2C show immunoblots of cleaved PARP (Cl. PARP) and cleaved caspase-3 (Cl. […] UM47, UMSCC47; GAPDH, glyceraldehyde 3-phosphate dehydrogenase. Western blot analysis was performed as described previously (Ferrarotto, et al., Clin Cancer Res 2016; 22(7):1674-86). In brief, cells were lysed with ice-cold lysis buffer, and the lysates were centrifuged at 20,000×g for 10 minutes at 4° C. Cell lysates containing equal amounts of protein were resolved using sodium dodecyl sulfate-polyacrylamide gel electrophoresis, transferred to nitrocellulose membranes, and incubated with different primary antibodies. Protein expression was detected using a horseradish peroxidase-conjugated secondary antibody (Bio-Rad, Hercules, CA) and electrochemiluminescence reagent (Amersham Biosciences, Pittsburgh, PA).

Compound: O=C(Nc1c[nH]nc1-c1nc2ccc(CN3CCOCC3)cc2[nH]1)NC1CC1 [AT9283]
- efficacy in HPV-positive vs HPV-negative cell lines [1]: more effective in HPV-positive than in HPV-negative cell lines

Compound: CCN(CCCOc1ccc2c(Nc3cc(CC(=O)Nc4cccc(F)c4)n[nH]3)ncnc2c1)CCOP(=O)(O)O [barasertib]
- efficacy in HPV-positive vs HPV-negative cell lines [1]: tended to be more effective in HPV-positive cell lines
- TUNEL-positive apoptotic nuclei [2]: significantly increased
- apoptosis (TUNEL) [3]: no appreciable levels of apoptosis
- caspase-3 activation and PARP cleavage [4]: selective caspase-3 activation and PARP cleavage in HPV-positive cancer cell lines

Compound: CO[C@H]1C[C@@H]2CC[C@@H](C)[C@@](O)(O2)C(=O)C(=O)N2CCCC[C@H]2C(=O)O[C@H]([C@H](C)C[C@@H]2CC[C@@H](O)[C@H](OC)C2)CC(=O)[C@H](C)/C=C(\C)[C@@H](O)[C@@H](OC)C(=O)[C@H](C)C[C@H](C)/C=C/C=C/C=C/1C [rapamycin]
- cell death ([1]; at concentrations known to inhibit mTOR): caused cell death only in a single cell line
